Results are given in words; binding and its absence hold for the method and conditions named. Binding seen in cells or lysates may run through a third protein. Some binding calls cover weakened binding; strength is not graded here.
Target: Plasminogen activator inhibitor-1 (human (endogenous in HUVEC)) (UniProt P05121)
Assay: co-IP; nuclear lysate of HUVECs incubated overnight with 3 ug PAI-1 (C-09) antibody, protein G microbeads 1 h (Nuclear Co-IP-Kit, Active Motif); Western blot for PAI-1 and PML

Amino acid sequences for entries named in this document (tags omitted). Residues count along the entry.
UniProt P05121, residues 24-402: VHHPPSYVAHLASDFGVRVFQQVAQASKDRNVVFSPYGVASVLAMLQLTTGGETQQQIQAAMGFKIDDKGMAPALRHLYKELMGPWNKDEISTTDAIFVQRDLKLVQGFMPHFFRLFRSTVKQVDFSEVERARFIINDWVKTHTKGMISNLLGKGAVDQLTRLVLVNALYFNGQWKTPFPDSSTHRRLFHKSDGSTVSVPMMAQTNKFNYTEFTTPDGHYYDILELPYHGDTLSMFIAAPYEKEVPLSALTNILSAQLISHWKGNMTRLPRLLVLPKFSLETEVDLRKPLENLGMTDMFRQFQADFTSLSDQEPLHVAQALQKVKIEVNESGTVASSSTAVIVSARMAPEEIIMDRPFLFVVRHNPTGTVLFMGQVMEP
UniProt P29590: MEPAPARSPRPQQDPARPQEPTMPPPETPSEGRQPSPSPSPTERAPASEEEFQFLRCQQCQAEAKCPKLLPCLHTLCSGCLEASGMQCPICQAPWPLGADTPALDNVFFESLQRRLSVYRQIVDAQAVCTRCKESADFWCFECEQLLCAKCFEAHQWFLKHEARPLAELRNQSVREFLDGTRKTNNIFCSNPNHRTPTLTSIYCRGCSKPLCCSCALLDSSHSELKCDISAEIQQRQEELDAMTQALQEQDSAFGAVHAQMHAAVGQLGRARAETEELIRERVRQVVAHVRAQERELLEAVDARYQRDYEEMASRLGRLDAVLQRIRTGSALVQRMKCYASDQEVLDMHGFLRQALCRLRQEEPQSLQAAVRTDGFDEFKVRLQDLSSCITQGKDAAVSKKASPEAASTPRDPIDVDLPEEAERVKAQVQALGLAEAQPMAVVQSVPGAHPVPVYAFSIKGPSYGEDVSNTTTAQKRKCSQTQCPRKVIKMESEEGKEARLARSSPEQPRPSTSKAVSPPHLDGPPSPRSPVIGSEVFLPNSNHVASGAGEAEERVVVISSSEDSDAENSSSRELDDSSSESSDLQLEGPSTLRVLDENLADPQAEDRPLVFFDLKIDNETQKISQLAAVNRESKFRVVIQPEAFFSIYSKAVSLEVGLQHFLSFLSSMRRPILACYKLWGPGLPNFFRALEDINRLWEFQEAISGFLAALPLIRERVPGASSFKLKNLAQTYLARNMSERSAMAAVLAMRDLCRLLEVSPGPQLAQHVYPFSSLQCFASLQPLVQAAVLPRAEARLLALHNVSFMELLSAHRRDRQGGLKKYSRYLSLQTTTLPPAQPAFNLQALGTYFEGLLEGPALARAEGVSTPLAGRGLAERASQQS

In the case of “Promyelocytic Leukemia Protein (from UniProt P29590 1-882)”, the binding is reported as “binds”.

Reference: publication PMC11332193
